# Data reported in paper PMC12466757, “1,5-Diarylidene-4-Piperidones as Promising Antifungal Candidates Against Cryptococcus neoformans” (Antibiotics, 2025).
# Values joined by “and” are separate entries in the source; they are usually repeats but may differ in a detail not shown here. Identical values can stand only once.
# Tested on: various human cells, i.e., A498, BEAS-2B, Caco-2, HaCaT, and HepG2
# Details: selectivity index = CC50 (human cells) divided by MIC (C. neoformans); min–max over the five cell lines
row,SMILES,SI Min–Max
1,"CCN1C/C(=C\c2ccc(OC)cc2)C(=O)/C(=C/c2ccc(OC)cc2)C1 [1a, 1-ethyl-3,5-bis((E)-4-methoxybenzylidene)piperidin-4-one]",0.5–3.7
2,"CCN1C/C(=C\c2ccc(C)cc2)C(=O)/C(=C/c2ccc(C)cc2)C1 [1b, 1-ethyl-3,5-bis((E)-4-methylbenzylidene)piperidin-4-one]",0.2–0.7
3,CCN1C/C(=C\c2ccc(C#N)cc2)C(=O)/C(=C/c2ccc(C#N)cc2)C1 [1c],0.1–1.2
4,CCN1C/C(=C\c2ccc([N+](=O)[O-])cc2)C(=O)/C(=C/c2ccc([N+](=O)[O-])cc2)C1 [1d],0.3–1.9
5,CCN1C/C(=C\c2ccc(Cl)cc2)C(=O)/C(=C/c2ccc(Cl)cc2)C1 [1e],0.09–0.4
6,CCN1C/C(=C\c2ccc(C(F)(F)F)cc2)C(=O)/C(=C/c2ccc(C(F)(F)F)cc2)C1 [1f],0.07–0.3
7,"CCCCOc1ccc(/C=C2\CN(CC)C/C(=C\c3ccc(OCCCC)cc3OCCCC)C2=O)c(OCCCC)c1 [2h, 3,5-bis((E)-2,4-dibutoxybenzylidene) -1-ethylpiperidin-4-one]",4.5–22.3
8,CCN1C/C(=C\c2ccc3c(c2)OCO3)C(=O)/C(=C/c2ccc3c(c2)OCO3)C1 [2i],0.5–1.0
9,CCN1C/C(=C\c2ccccc2F)C(=O)/C(=C/c2ccccc2F)C1 [2j],0.1–0.7
10,CCN1C/C(=C\c2cnc3ccccc3c2)C(=O)/C(=C/c2cnc3ccccc3c2)C1 [2l],0.1–0.3
11,CCCCOc1ccc(/C=C2\CN(Cc3ccccc3)C/C(=C\c3ccc(OCCCC)cc3OCCCC)C2=O)c(OCCCC)c1 [3h],5.4 to 80.5 and 5.4–80.5
12,O=C1/C(=C/c2ccc[nH]2)CN(Cc2ccccc2)C/C1=C\c1ccc[nH]1 [3j],0.4–1.3
13,CCCCOc1ccc(/C=C2\CN(C3CC3)C/C(=C\c3ccc(OCCCC)cc3OCCCC)C2=O)c(OCCCC)c1 [4h],> 4
